Source: paper PMC5520852
No constants are given. Whether binding was seen depends on the method and setting. Binding seen in cells or lysates may run through a third protein. A yes stands for co-enrichment or nearness to the bait. Other partners may have been found. A no says only that the protein was not detected with the bait.

Chains of the proteins cited; added tags and fusions are not shown.
UniProt Q99JR8: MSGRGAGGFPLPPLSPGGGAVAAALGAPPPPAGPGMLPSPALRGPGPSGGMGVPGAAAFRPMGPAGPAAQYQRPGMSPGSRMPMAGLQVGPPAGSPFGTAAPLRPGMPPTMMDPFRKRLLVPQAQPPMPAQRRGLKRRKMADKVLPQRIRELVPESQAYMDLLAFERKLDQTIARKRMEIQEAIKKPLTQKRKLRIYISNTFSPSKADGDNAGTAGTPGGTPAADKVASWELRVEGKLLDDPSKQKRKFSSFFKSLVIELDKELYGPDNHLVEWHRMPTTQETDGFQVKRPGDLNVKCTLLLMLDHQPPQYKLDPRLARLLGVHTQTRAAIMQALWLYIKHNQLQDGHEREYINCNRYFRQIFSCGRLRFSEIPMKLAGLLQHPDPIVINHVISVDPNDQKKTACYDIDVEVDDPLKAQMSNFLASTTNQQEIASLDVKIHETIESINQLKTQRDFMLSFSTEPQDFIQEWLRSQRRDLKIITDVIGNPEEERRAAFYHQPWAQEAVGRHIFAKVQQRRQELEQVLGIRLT
UniProt Q61466: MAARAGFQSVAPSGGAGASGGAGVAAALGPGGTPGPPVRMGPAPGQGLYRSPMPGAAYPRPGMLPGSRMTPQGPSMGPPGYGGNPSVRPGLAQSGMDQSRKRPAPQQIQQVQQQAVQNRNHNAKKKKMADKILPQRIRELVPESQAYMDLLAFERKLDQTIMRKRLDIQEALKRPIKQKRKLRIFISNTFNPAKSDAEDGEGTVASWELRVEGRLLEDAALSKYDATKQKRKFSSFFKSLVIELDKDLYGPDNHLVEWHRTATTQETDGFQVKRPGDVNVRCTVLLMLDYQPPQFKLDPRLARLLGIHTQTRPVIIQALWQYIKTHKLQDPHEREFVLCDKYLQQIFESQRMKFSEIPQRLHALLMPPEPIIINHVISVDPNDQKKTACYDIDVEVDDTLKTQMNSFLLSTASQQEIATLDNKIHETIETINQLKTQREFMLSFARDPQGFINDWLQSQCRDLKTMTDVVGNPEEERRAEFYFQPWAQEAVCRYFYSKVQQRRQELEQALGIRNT
UniProt Q6P9Z1: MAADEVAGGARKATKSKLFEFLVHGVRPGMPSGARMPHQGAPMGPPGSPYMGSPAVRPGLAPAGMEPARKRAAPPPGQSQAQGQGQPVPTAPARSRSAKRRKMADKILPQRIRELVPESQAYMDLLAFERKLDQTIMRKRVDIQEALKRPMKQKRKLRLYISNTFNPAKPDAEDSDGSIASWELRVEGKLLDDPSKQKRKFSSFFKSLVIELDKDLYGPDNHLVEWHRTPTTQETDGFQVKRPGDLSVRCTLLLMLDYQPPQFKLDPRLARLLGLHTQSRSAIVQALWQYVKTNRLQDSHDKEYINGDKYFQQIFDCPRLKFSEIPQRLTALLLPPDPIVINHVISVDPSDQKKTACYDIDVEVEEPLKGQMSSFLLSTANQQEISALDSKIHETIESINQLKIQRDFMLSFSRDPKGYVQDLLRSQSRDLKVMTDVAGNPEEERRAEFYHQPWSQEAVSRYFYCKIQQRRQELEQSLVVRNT
UniProt Q3TKT4: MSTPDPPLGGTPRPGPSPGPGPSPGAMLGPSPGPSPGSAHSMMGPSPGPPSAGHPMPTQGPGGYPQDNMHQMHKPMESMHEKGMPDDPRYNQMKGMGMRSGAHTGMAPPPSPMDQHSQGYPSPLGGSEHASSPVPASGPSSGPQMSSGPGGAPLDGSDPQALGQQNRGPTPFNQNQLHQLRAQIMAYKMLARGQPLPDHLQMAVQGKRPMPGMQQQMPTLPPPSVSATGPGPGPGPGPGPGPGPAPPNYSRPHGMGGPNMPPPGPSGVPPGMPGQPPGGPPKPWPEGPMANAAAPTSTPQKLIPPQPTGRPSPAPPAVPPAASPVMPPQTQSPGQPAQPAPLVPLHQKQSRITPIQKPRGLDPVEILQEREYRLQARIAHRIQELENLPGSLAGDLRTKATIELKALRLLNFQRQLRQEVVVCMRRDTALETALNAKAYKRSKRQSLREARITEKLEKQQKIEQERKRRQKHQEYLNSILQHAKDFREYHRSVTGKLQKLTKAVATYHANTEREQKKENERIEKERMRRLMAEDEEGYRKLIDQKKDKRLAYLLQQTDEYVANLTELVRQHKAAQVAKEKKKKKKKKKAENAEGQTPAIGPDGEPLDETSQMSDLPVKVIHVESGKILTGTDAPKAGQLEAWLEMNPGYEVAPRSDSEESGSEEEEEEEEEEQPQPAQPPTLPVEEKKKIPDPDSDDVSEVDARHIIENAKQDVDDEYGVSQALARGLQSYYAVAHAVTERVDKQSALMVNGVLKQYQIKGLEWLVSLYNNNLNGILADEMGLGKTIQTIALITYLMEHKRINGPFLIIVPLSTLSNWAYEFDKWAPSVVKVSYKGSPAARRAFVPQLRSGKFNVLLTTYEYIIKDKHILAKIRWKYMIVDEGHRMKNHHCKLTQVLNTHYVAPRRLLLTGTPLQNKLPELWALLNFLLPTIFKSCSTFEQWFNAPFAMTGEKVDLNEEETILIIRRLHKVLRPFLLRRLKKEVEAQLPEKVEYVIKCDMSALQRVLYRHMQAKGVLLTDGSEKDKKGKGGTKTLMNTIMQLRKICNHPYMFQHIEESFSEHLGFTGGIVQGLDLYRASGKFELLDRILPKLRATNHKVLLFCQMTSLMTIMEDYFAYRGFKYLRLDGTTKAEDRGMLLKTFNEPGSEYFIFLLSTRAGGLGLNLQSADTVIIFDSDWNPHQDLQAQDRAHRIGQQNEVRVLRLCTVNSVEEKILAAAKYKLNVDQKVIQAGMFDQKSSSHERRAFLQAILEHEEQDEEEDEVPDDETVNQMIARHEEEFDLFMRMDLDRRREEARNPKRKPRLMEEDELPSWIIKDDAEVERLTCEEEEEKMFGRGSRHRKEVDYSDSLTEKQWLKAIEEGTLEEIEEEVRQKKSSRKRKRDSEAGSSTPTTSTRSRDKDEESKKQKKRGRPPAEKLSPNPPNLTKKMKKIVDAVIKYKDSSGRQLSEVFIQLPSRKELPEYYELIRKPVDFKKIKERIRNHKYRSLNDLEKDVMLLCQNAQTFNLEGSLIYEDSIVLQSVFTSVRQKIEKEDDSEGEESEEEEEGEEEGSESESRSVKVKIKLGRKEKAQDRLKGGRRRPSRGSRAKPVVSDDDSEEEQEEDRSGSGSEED

The substances below were run against HA-tagged Baf60b (full length) (UniProt Q99JR8) (assay: affinity purification with mass spectrometry; co-IP samples of Baf60b and the ΔSWIB mutant separated on 8% SDS-PAGE, in-gel trypsin digestion, LC-MS/MS (Orbitrap Fusion), MaxQuant LFQ normalised to Baf60b (Smarcd2)).

| binding | Substance |
| --- | --- |
| no binding | Baf60a (from UniProt Q61466 1-515) |
| no binding | Baf60c (from UniProt Q6P9Z1 1-483) |
| binds | Brg1 (from UniProt Q3TKT4 1-1613) |
